# Screening data, single-dose tests

Amino acid sequences for entries named in this document (tags omitted). Residues count along the entry.
UniProt A4I591, 1-473: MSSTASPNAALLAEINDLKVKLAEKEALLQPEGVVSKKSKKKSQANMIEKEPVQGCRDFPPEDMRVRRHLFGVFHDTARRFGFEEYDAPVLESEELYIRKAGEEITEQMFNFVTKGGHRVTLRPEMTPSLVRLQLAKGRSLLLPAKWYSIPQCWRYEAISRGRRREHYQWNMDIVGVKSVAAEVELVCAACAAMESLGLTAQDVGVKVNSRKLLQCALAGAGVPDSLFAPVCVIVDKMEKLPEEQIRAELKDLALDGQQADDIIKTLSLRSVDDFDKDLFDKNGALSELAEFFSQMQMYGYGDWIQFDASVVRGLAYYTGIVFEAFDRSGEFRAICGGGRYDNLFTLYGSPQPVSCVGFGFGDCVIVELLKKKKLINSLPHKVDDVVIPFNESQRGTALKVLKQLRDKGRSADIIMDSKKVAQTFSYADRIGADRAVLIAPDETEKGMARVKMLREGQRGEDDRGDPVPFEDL
UniProt P9WPC5, whole entry: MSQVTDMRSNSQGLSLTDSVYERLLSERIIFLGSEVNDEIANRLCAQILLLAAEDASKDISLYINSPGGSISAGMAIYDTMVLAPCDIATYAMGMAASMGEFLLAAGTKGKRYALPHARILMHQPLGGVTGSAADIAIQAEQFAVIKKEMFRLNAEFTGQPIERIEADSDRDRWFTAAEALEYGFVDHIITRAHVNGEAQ
UniProt P9WPC3, whole entry partner: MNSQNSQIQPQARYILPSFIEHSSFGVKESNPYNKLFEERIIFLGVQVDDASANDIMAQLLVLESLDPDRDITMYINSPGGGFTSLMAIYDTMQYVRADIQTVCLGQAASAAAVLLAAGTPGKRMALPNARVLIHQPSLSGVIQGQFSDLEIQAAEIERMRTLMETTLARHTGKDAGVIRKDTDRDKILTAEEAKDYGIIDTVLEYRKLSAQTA

Data taken from ChEMBL document CHEMBL3988442, “University of Dundee, Small-Polar-MMV Screening Library” (2021).

Each number is a percent effect as filed. The controls that fix the scale are not given in the record; negative values are as filed. This is an unselected part of the compounds tested. Two or more numbers in one place are separate tests of the same structure; such repeats can differ widely. A dash means the value is not listed here; it may have been measured.

LiHisRS: 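Enzyme assay of histidyl-tRNA synthetase; the read-out is not stated. Target: Histidine-tRNA ligase, Leishmania infantum (UniProt A4I591). Compounds at 30 µM. Direction is inferred from retests: higher values go with stronger inhibition. The assay is labelled LdHisRS but filed under L. infantum. Of about 69,000 compounds tested this way, about 410 (0.6%) reached 50% or more in at least one test.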
Toxoplasma: 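Assay of Toxoplasma gondii numbers, read through their beta-galactosidase reporter with a colour substrate. Tested at 10 µM. Higher reads as fewer parasites (inferred from which compounds were picked for retests). Size under these conditions: about 67,000 compounds, about 260 of them at 50% or above in at least one test.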
ClpP1P2: 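Protease assay of ClpP1P2, read by the AMC dye that it sets free. Target: ClpP1P2, Mycobacterium tuberculosis (UniProt P9WPC5 and UniProt P9WPC3). Concentration: 50 µM. Higher reads as stronger inhibition, judged from the few compounds that gave an IC50. Most other retested compounds had strongly negative values. Of about 69,000 compounds tested this way, about 10 (0.015%) reached 50% or more in at least one test.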
T. brucei: 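Whole-parasite assay of Trypanosoma brucei over 72 hours; the read-out is not stated. Tested at 30 µM. Higher reads as stronger inhibition (inferred: compounds with an IC50 in retests scored well above the rest). Values scatter widely below zero; nearly all retest evidence comes from the higher of the two concentrations used. Of about 64,000 compounds tested this way, about 940 (1.5%) reached 50% or more in at least one test.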
Leishmania in macrophages: 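Cell assay of Leishmania donovani living inside macrophages; the read-out is not stated. Tested at 30 µM. Direction is inferred from retests: higher values go with stronger inhibition. Size under these conditions: about 69,000 compounds, about 1,000 of them at 50% or above in at least one test.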

compound,LiHisRS,Toxoplasma,ClpP1P2,T. brucei,Leishmania in macrophages
COc1nc2c(cc1C(=O)NC(C)Cc1cc(C)n[nH]1)CCC2 (stereo not drawn),33.33%,-12.61%,9.455%,-2.183%,25.02%
Cc1cc(NCc2cc3n(n2)CCCN(S(C)(=O)=O)C3)ncn1,9.524%,-10.72%,0.9379%,35.03%,-1.627%
COCC(=O)N1CCCC1c1csc(Nc2cnccn2)n1 (stereo not drawn),13.04%,-10.72%,-1.903%,22.69%,-3.119% and 13.76%
CCSc1ccc(NC(=O)NC(C)c2ccncc2)cn1 (stereo not drawn),-5.714%,-5.991%,8.773%,1.56%,-1.606%
Cc1cccc2nc(CNC(=O)N3CCC(N4CC=CC4)C3)cn12 (stereo not drawn),15.38%,3.738%,-6.49%,-8.398%,-4.899% and -0.2641%
CN(Cc1ccc2c(c1)OCO2)C(=O)Cn1cccnc1=O,0%,-15.85%,-9.738%,-23.76%,-14.07%
CN(C)CCn1ccnc1C1CCCN(C(=O)CCc2cccnc2)C1 (stereo not drawn),9.917%,-34.43%,-11.5%,-9.53%,37.08%
O=c1oc(-c2ccc(F)cc2)nn1CN1CCN(C2CCCC2)CC1,13.7%,3.917%,4.366%,7.308%,-7.63%
CC(C)OCc1ncn2c1CN(Cc1cccs1)CCC2,4.511%,-,6.833%,-,-
CCC1(O)CCCN(c2ncnc3c2c(C)nn3C)C1 (stereo not drawn),11.48%,-16.21%,-10.66%,27.55%,14.93%
CC(C)c1sc(Br)nc1C(=O)NCc1cccnc1,29.17%,22.23%,-4.953%,-,8.966%
O=C(CC1CC1)N1CCC2(CC1)CN(CCn1cccn1)C(=O)CO2,17.95%,-50.63%,1.636%,-,2.141%
CC1(CNS(=O)(=O)c2cccc(C(=O)N3CCSCC3)c2)COC1,11.11%,7.875%,0.04534%,6.085%,2.773%
COc1cc(CN2C[C@@H]3CNC(=O)[C@H](C)[C@@H]3C2)cc(OC)c1,21.1%,-,-15.54%,-,-
O=C(CNc1cc2c(cc1Cl)OCCO2)NCC(F)(F)F,27.27%,-4.417%,3.624%,-14.13%,27.68%
c1ccc(-c2nc(CCNCc3cccnc3)co2)cc1,20.21%,-5.172%,0.09407%,3.325%,6.272%
COc1ccc(C2CN(c3nc(C)cc(C)n3)CCN2C(C)=O)cc1 (stereo not drawn),9.859%,20.26%,-5.677%,9.247%,30.74%
CS(=O)(=O)c1ccc(CNC(=O)N2CCC(CO)CC2)cc1,6.78%,15.49%,-8.815%,-,31.83%
O=C(O)C(F)(F)F.[H][C@@]12OCCN(CC3CCC3)[C@@]1([H])CC[C@H]2OCC,-,-0.2429%,-,-19.35%,-18.14%
Cc1cc(NC(=O)N2CCN(C)CC2C)n(C)n1 (stereo not drawn),23.29%,-2.655%,-2.91%,-29.71%,24.09%
O=C1CC(c2ccsc2)c2cnn(C3CCCC3)c2N1 (stereo not drawn),27.17%,6.065%,-16.13%,11.49%,6.441%
O=c1[nH]c(NC2CCCC2)nc2nccc(-c3ccco3)c12,4.918%,-2.609%,-284.1%,45.67%,23.18%
O=C(O)C(F)(F)F.[H][C@]12CCN(C(=O)c3ccc4[nH]ccc4c3)C[C@@]1([H])OCCN(CC)C2,-,-5.341%,-,-36.63%,33.86%
[H][C@@]12C[C@@H](OC)C[C@]1([H])CN(C(=O)c1nn(CCC)cc1Cl)C2,-,13.82%,-,5.248%,-1.312%
COCC1CC2(CCN(c3ccc(C)nn3)CC2)CN1C(C)C (stereo not drawn),5.941%,-,-1.947%,-,-
O=C(c1ccc(F)cc1)N1CCN2C[C@H](OCc3cccnc3)C[C@H]2C1,20%,-,-1.519%,-,-
CN(C)C1(CNC(=O)C/C=C/c2ccc(F)cc2)CCOCC1,16.67%,0.5882%,-1.533%,-1.051%,-2.01%
CN1CCCN(c2ccc(F)cc2CNC(=O)c2cccnc2)CC1,0%,6.101%,-12.57%,11.81%,8.987%
c1ccc(Cc2cncc(C3CCCN3C3CCOCC3)n2)cc1 (stereo not drawn),13.04%,-10.88%,-7.719%,-18.14%,6.984%
O=C(O)C(F)(F)F.O=C(O)C(F)(F)F.O=C(O)C(F)(F)F.c1cncc(CN2CCCn3nnc(CN4CCCC4)c3C2)c1,-,9.798%,-,-17.16%,41.62%
O=C1[C@H]2CN(C3CCOCC3)C[C@H]2CN1Cc1ccncc1,19.74%,-,-4.21%,-,-
O=C(c1cnccn1)N1C[C@@H]2[C@@H](C1)OCC(=O)N2CC1CCCC1,-944.4%,-,-17.67%,-,-
CC(C1CC1)N(C(=O)NCCCn1nc2ccccn2c1=O)C1CC1 (stereo not drawn),15.38%,1.752%,-17.42%,-62.15%,-2.613%
O=C(NCCCO)c1nnsc1-c1ccccc1,6.173%,-20.96%,0.6382%,-65.81%,32.45%
[H][C@]12CC[C@]([H])(CN(Cc3ccncc3)C1)N(C(=O)C1(C#N)CCOCC1)C2,-,-29.3%,-,-61.95%,12.42%
Cc1csc2c(N3CCC(NCCc4ccnn4C)CC3)ncnc12,16.8%,-20.68%,-6.042%,-26.9%,17.37%
Cn1ccnc1N1CCN(C(=O)Cc2ccc(F)cc2)CC1,18.45%,-,-6.093%,-,-
O=C(NCC1(O)CCc2ccccc21)Nc1ccc2c(c1)OCO2 (stereo not drawn),13.56%,-11.21%,-11.48%,-13.82%,18.36%
COc1ccc(CCNC(=O)C2CCC(Cn3cnnn3)CC2)cc1 (stereo not drawn),5.825%,0.2391%,2.797%,42.94%,-26.96%
Cc1ncc2c(n1)CN(Cc1cccc3c1OCCO3)CC2,40.3%,8.051%,-6.271%,-9.069%,8.95%
CCCN(CCC)Cc1nnsc1Cl,4.167%,1.826%,-5.099%,-17.26%,-0.2788%
COc1ccc(CN2C[C@H]3CN(c4ccsc4)C(=O)[C@H]3C2)cc1,12.03%,-,-7.663%,-,-
CN(C)c1cc(CNC(=O)NCC2(C)CCCS2)ccn1 (stereo not drawn),19.51%,3.737%,6.99%,-29.71%,20.8%
CCc1nc(C2CCCN(C(=O)c3cccc(Cl)c3)C2)no1 (stereo not drawn),11.5%,0.5616%,-28.89%,-,6.541%
COc1ccccc1OC1CCN(Cc2cccnc2)CC1,12.99%,3.983%,-12.86%,9.574%,-12.93%
O=C(O)C(F)(F)F.[H][C@@]12OCCN(S(=O)(=O)CCC)[C@@]1([H])CC[C@@H]2Oc1cccnc1,-,12.85%,-,-3.605%,9.874%
O=C(O)C(F)(F)F.O=C(O)C(F)(F)F.c1cnc(N2CCC3(COCCN(CC4CC4)C3)C2)nc1 (stereo not drawn),-,-12.26%,-,-1.762%,0.3745%
Cc1nc2c(c(NCC(c3ccccc3C)N(C)C)n1)CCNC2 (stereo not drawn),13.83%,15.15%,-5.466%,-44.72%,37.15%
[H][C@@]12CCCCN(Cc3cccs3)[C@]1([H])CN(S(=O)(=O)c1ccccc1)C2,-,6.338%,-,13.98%,-11.27%

For reference, 5 entries once more:

compound,LiHisRS,Toxoplasma,ClpP1P2,T. brucei,Leishmania in macrophages
Cc1cc(NC(=O)N2CCN(C)CC2C)n(C)n1 (stereo not drawn),23.29%,-2.655%,-2.91%,-29.71%,24.09%
CS(=O)(=O)c1ccc(CNC(=O)N2CCC(CO)CC2)cc1,6.78%,15.49%,-8.815%,-,31.83%
Cn1ccnc1N1CCN(C(=O)Cc2ccc(F)cc2)CC1,18.45%,-,-6.093%,-,-
COc1nc2c(cc1C(=O)NC(C)Cc1cc(C)n[nH]1)CCC2 (stereo not drawn),33.33%,-12.61%,9.455%,-2.183%,25.02%
O=c1oc(-c2ccc(F)cc2)nn1CN1CCN(C2CCCC2)CC1,13.7%,3.917%,4.366%,7.308%,-7.63%